{"sequences": {"note": "Amino acid sequences for entries named in this document (tags omitted).", "UniProt P48431": "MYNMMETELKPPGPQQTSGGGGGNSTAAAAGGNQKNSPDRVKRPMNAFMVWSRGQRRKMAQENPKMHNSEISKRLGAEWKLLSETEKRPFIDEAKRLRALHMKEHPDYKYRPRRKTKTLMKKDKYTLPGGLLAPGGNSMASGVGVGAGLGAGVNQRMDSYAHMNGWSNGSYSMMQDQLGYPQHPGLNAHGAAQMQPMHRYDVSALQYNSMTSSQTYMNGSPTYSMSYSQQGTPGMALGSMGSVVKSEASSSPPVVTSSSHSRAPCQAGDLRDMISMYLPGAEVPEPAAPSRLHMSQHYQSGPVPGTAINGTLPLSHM", "UniProt Q86UP3": "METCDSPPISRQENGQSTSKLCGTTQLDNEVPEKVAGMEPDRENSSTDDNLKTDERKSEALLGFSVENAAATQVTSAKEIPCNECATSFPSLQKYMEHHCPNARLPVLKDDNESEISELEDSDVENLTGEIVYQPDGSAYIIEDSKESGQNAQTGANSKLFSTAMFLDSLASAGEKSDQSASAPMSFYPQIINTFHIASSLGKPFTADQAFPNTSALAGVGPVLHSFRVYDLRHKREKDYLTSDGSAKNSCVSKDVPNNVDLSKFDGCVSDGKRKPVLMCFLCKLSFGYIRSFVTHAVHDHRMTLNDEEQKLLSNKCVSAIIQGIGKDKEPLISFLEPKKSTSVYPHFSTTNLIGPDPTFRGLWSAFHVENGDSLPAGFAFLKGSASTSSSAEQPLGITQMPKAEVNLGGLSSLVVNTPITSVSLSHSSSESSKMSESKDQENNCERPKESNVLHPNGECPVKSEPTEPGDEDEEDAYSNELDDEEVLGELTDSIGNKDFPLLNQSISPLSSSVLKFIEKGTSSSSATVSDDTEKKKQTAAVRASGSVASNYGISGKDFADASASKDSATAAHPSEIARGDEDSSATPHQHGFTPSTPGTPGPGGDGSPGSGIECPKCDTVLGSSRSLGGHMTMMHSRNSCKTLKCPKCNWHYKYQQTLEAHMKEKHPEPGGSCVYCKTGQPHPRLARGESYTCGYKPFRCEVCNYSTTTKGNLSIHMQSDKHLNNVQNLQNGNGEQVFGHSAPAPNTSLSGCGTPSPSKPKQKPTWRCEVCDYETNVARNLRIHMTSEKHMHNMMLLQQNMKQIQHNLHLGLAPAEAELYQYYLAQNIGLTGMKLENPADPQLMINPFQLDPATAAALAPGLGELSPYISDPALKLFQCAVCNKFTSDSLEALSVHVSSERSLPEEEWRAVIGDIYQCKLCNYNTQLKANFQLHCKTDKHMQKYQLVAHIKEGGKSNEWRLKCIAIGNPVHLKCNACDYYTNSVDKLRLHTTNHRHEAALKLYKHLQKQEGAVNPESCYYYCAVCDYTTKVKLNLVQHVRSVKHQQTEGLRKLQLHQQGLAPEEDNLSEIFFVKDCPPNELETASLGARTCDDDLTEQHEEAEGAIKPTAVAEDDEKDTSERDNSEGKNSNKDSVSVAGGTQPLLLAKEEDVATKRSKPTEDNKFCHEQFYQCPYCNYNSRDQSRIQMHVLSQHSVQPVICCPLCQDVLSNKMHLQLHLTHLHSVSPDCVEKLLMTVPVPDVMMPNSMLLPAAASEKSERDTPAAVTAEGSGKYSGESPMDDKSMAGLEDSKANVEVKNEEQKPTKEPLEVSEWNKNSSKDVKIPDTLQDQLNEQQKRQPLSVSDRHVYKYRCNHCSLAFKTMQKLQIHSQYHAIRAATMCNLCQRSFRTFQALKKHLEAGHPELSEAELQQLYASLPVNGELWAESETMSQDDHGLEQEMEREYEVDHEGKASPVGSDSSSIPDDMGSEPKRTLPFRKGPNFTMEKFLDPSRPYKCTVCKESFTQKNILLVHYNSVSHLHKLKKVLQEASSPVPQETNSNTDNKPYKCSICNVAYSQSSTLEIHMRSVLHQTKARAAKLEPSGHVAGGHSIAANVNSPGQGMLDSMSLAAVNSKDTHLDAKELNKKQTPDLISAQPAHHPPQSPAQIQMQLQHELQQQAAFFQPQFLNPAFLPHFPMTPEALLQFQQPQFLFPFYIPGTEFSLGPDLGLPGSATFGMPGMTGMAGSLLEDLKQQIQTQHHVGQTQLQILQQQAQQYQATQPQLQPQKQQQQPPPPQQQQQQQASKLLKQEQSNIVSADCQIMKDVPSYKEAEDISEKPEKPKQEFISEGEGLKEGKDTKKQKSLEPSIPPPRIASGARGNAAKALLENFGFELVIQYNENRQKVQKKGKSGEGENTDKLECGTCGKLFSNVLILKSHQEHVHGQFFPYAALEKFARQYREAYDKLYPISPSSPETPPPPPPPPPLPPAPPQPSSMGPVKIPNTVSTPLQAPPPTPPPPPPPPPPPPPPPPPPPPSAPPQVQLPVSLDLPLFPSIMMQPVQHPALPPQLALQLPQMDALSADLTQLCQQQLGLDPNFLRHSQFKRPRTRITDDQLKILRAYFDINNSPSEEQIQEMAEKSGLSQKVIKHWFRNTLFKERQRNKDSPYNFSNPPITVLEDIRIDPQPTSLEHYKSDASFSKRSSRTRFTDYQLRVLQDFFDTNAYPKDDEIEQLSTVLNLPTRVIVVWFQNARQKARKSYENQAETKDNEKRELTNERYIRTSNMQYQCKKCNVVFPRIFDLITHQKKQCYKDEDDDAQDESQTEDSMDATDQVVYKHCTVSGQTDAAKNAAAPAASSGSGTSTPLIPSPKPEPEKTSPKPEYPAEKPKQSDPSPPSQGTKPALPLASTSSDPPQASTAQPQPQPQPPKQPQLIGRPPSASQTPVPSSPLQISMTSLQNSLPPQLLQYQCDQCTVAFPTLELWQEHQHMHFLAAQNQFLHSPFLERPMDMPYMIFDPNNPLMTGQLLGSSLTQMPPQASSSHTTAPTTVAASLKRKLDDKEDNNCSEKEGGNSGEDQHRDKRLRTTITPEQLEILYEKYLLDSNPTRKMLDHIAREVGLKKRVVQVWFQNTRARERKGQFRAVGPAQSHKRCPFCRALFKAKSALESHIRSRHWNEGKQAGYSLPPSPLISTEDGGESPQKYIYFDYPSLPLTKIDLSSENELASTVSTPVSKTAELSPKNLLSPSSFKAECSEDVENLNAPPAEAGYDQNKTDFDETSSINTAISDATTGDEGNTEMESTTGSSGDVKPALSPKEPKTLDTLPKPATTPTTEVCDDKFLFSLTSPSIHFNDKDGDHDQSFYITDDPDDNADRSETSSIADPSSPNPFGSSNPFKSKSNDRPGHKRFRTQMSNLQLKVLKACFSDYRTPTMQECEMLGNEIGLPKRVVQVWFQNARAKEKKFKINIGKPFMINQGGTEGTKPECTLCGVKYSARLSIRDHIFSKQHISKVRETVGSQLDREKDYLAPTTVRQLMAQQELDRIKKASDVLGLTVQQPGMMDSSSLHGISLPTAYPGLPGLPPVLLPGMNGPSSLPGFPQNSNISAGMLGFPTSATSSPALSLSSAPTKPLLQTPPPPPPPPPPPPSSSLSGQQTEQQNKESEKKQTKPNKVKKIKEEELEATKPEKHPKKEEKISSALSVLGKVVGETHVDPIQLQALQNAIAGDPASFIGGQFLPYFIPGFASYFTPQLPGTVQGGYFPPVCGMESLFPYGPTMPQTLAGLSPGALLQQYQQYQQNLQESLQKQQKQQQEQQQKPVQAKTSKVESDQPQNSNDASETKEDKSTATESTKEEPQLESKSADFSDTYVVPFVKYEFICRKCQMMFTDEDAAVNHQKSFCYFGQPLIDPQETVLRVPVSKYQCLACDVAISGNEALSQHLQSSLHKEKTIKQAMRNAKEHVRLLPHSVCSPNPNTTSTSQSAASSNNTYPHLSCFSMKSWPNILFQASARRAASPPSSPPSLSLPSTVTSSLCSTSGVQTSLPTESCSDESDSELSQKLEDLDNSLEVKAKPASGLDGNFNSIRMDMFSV"}, "source": "paper PMC12741749", "molecular_target": "SRY-Box Transcription Factor 2 (human (in glioma cell lines)) (UniProt P48431)", "experiment": "co-IP; glioma cell lysate (RIPA Lysis Buffer) incubated with anti-SOX2 antibody overnight at 4 °C, protein A/G-agarose beads 2 hours at 4 °C, washed three times with lysis buffer, Western blotting", "note": "These are yes or no findings as the source states them, for the method shown. In cells and extracts the contact can be indirect. Some results given as binding are weak or reduced against the parent protein; the word gives no strength."}
{"substance": "Zinc Finger Homeobox 4 (from UniProt Q86UP3 1-3567)", "values": [{"measurement": "binding", "result": "binds"}]}
